According to PubChem BioAssay AID662 (National Center for Advancing Translational Sciences (NCATS), 2007):
The list shows a part of the results. The main result of the screen is listed elsewhere. These columns were measured beside it and carry no call. Compounds called inactive in the main read-out are mostly missing here. Words in brackets tell the shape of the fitted curve; partial curves, single points and poor fits give uncertain potencies.

Test: Cell signaling CRE-BLA (Fsk stim)
Conditions: CHO CRE-bla reporter (cAMP response element driving beta-lactamase), forskolin EC10, beta-lactamase ratio; measured here: 460 nm blue channel
Method in brief: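 Using CellSensor CRE-bla CHO cells in Opti-MEM with 0.5% dialyzed FBS, compounds were titrated with EC10 NKH 477 for 3 h at 37 °C. CCF4 ratio (460/530 nm) gave %Activity; AC50 derived.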

With O=C(Cn1cnc2c(nnn2Cc2ccc(F)cc2)c1=O)NCC1CCCO1 (configuration not stated) as the compound, how does the AC50 read?
Its AC50 is 0.0126 µM [falling, full curve, poor fit].

For CC(C)(C)c1csc(NC(=O)c2ccc(Cl)s2)n1, which AC50 is on record?
Its AC50 is 25.1 µM [falling, single point].

For CCCCn1c(=O)[nH]c(=O)c2c1nc(COC(=O)c1c(C)noc1C)n2CCC, which AC50 is on record?
Its AC50 is 10 µM [rising, partial curve].

With N#CC(C(=O)NCc1ccco1)c1nc2ccccc2nc1N1CCOCC1 (configuration not stated) as the compound, how does the AC50 read?
The AC50 was 12.6 µM [rising, partial curve].

For COc1cc(C(=O)Nc2oc(-c3ccccc3)c(-c3ccccc3)c2C#N)cc(OC)c1OC, which AC50 is on record?
The AC50 was 1.26 µM [rising, full curve].

With OCCN1CCN(c2nc(N3CCCCC3)nc(N3CCCCC3)n2)CC1 as the compound, how does the AC50 read?
Its AC50 is 0.00316 µM [falling, full curve, poor fit].

For O=C(CSc1nnnn1-c1ccc(Cl)cc1)NC(=O)Nc1ccc2c(c1)OCCO2, which AC50 is on record?
The AC50 was 3.16 µM [rising, single point].

For CCC1CCCCN1S(=O)(=O)c1ccc2c(c1)CCN2C(=O)C1CCC1 (configuration not stated), which AC50 is on record?
Its AC50 is 12.6 µM [rising, single point].

With N#CC1=C(N)C(C#N)(C#N)C2(CCC3(CC2)OCCO3)C2CC3(CC=C12)OCCO3 (configuration not stated) as the compound, how does the AC50 read?
The AC50 was 25.1 µM [rising, single point].

For COC(=O)c1c(NC(=O)CC2NCCNC2=O)sc2c1CCCC2 (configuration not stated), which AC50 is on record?
Its AC50 is 12.6 µM [rising, single point].

With COc1ccc(C2C(C(=O)OC3CCCCC3)=C(C)Nc3nnnn32)c(OC)c1OC (configuration not stated) as the compound, how does the AC50 read?
The AC50 was 25.1 µM [falling, single point].

For CC1(C)Cc2cccc(OCC(=O)Nc3ccccc3N3CCOCC3)c2O1, which AC50 is on record?
Its AC50 is 5.01 µM [falling, single point].

For CCOC(=O)C1CCCN(Cc2ccc(O)c(OC)c2)C1 (configuration not stated), which AC50 is on record?
The AC50 was 0.00398 µM [falling, full curve, poor fit].

With COc1ccc(Oc2ncc3nc(-c4cccs4)c(=O)n(Cc4cccs4)c3n2)cc1 as the compound, how does the AC50 read?
The AC50 was 3.98 µM [rising, full curve].

With CN(C)CCCN1C(=O)C(=O)/C(=C(/O)c2ccc3c(c2)OCCO3)C1c1ccccn1 (configuration not stated) as the compound, how does the AC50 read?
Its AC50 is 25.1 µM [falling, single point].

With COc1ccc(-c2cn3cccnc3n2)cc1NC(=O)CC(C)C as the compound, how does the AC50 read?
The AC50 was 0.1 µM [falling, full curve].

For COc1ccccc1Cn1c(=O)c2ccccc2n2c(SCc3csc(C)n3)nnc12, which AC50 is on record?
Its AC50 is 5.01 µM [rising, full curve, poor fit].

With COc1ccc(-c2nnc3sc(-c4ccc(Br)o4)nn23)cc1OC as the compound, how does the AC50 read?
Its AC50 is 2.51 µM [rising, single point].

Which AC50 does the source give for CCN(CC)S(=O)(=O)c1ccc(Nc2nc3ccccc3n3nnnc23)cc1 here?
Its AC50 is 10 µM [rising, partial curve].

Which AC50 does the source give for CCCCSc1nc2c(c(=O)[nH]c(=O)n2C)n1CCc1ccccc1 here?
Its AC50 is 10 µM [rising, partial curve].

For COc1ccc(-c2nnc(SCC(=O)c3cccs3)o2)c(OC)c1, which AC50 is on record?
The AC50 was 10 µM [rising, partial curve].

With CCCCCC1=C2CNC(Cc3ccccc3)(C(=O)OC)C=C2C(C)C1=O (configuration not stated) as the compound, how does the AC50 read?
Its AC50 is 25.1 µM [rising, single point].

Which AC50 does the source give for CCC(C)n1[nH]c(=O)cc1N (configuration not stated) here?
Its AC50 is 0.00316 µM [falling, full curve, poor fit].

For O=C(NCCCNCc1ccccc1)c1ccc(/C=N/O)nc1, which AC50 is on record?
Its AC50 is 0.00316 µM [falling, full curve, poor fit].

For COc1ccc(OC)c(C2=Nn3c(nnc3-c3cc(OC)c(OC)c(OC)c3)SC2)c1, which AC50 is on record?
Its AC50 is 3.98 µM [falling, partial curve].

For Cc1ccc(S(=O)(=O)NC(C)C(=O)NC2CCCCCC2)cc1 (configuration not stated), which AC50 is on record?
The AC50 was 3.16 µM [falling, partial curve, poor fit].

For COCCCNC(=O)CCn1c(=O)c2ccccc2n(CC(=O)Nc2cc(Cl)ccc2C)c1=O, which AC50 is on record?
Its AC50 is 0.398 µM [falling, partial curve].

For Cc1c(NC(=O)c2cc(-n3cnnc3)ccc2Cl)cccc1-c1nc2ccccc2o1, which AC50 is on record?
Its AC50 is 0.794 µM [falling, full curve].

For Cc1ccc(C(=O)CSc2n[nH]c(C)n2)cc1, which AC50 is on record?
Its AC50 is 1 µM [rising, single point].

With COC(=O)c1ccccc1NC(=O)NCc1ccc2c(c1)OCO2 as the compound, how does the AC50 read?
The AC50 was 10 µM [rising, single point].

For CCOc1ccc(-n2c(=O)c3sccc3n(CC(=O)NCc3ccco3)c2=O)cc1, which AC50 is on record?
Its AC50 is 0.0794 µM [falling, full curve].

For COc1ccccc1NC(=O)CSc1nc2ccccc2c(=O)n1CCNC(C)=O, which AC50 is on record?
The AC50 was 15.8 µM [rising, partial curve].

For CC1(C)CC(=O)c2c(noc2-c2ccccc2)C1, which AC50 is on record?
Its AC50 is 25.1 µM [rising, single point].

For COc1ccc(-c2nc3cnc(N4CCNCC4)nc3n(CCc3ccccc3)c2=O)cc1, which AC50 is on record?
Its AC50 is 1.26 µM [rising, full curve].

For OC[C@@H]1O[C@@H](n2cnc3cncnc32)[C@@H](O)[C@H]1O, which AC50 is on record?
The AC50 was 15.8 µM [falling, partial curve].

With CCOc1cc(CNc2ccccc2SC)ccc1O as the compound, how does the AC50 read?
Its AC50 is 0.00794 µM [falling, full curve].

Which AC50 does the source give for CC(=O)c1c(C)[nH]c(C(=O)CSc2nnc(CN3CCCCCC3=O)n2-c2ccccn2)c1C here?
The AC50 was 5.01 µM [falling, single point].

With Cc1nc(N2CCCC2)c2nnn(Cc3ccccc3Cl)c2n1 as the compound, how does the AC50 read?
The AC50 was 2.51 µM [rising, full curve].

With c1ccc(Nc2ncnc3ccc(-c4ccc5c(c4)OCO5)cc23)cc1 as the compound, how does the AC50 read?
The AC50 was 10 µM [rising, partial curve].

With CC(C(=O)OCc1nnc(-c2ccccc2)o1)N1C(=O)c2ccccc2C1=O (configuration not stated) as the compound, how does the AC50 read?
The AC50 was 0.0316 µM [falling, full curve, poor fit].

With O=C(CSc1nc2c(cnn2-c2ccc(F)cc2)c(=O)[nH]1)N1CCCCCC1 as the compound, how does the AC50 read?
Its AC50 is 5.01 µM [rising, full curve, poor fit].

With COc1ccc(N2CCN(CC(=O)Nc3c(C)cc(C)cc3C)CC2)cc1 as the compound, how does the AC50 read?
Its AC50 is 20 µM [falling, single point].

With c1ccc(CNc2ncnc3c2cnn3-c2ccccc2)cc1 as the compound, how does the AC50 read?
Its AC50 is 12.6 µM [rising, single point].

For CC(=O)CSc1nc2ccc(Nc3nc(N4CCOCC4)nc(N4CCOCC4)n3)cc2s1, which AC50 is on record?
Its AC50 is 12.6 µM [rising, partial curve].

For Nc1nc(SCC(=O)NCc2ccccc2)n[nH]1, which AC50 is on record?
Its AC50 is 3.98 µM [falling, partial curve].

With COc1cc(NC(=O)Cn2ncc3c2-c2ccccc2OC3)cc(OC)c1OC as the compound, how does the AC50 read?
Its AC50 is 10 µM [rising, partial curve].

For CC(=O)NCCNc1nc(-c2cccnc2)nc2ccccc12, which AC50 is on record?
Its AC50 is 5.01 µM [rising, partial curve].

Which AC50 does the source give for O=C(CSc1nc2ccccc2o1)Nc1ccccc1 here?
The AC50 was 0.01 µM [falling, full curve].

For COc1cccc(Cn2c(=O)cnc3cncnc32)c1, which AC50 is on record?
The AC50 was 6.31 µM [rising, partial curve].

For COC(=O)[C@@]1(Cc2ccccc2)[C@H]2c3cc(C(=O)N4CCCC4)n(Cc4ccccn4)c3C[C@H]2CN1C(=O)c1ccccc1, which AC50 is on record?
The AC50 was 25.1 µM [rising, partial curve].

Which AC50 does the source give for COC(=O)c1ccc2c(=O)n(CC3CCCO3)c(SCC(=O)Nc3ccccc3OC)nc2c1 (configuration not stated) here?
The AC50 was 5.01 µM [rising, partial curve].

For COc1ccc(C(C)(C)C)cc1NC(=O)Nc1ccc2c(c1)OCO2, which AC50 is on record?
The AC50 was 10 µM [falling, single point].

For COc1ccc(Cn2nnnc2CN(Cc2cc3ccc(C)cc3[nH]c2=O)C2CCCC2)cc1, which AC50 is on record?
The AC50 was 12.6 µM [rising, partial curve].

For COc1ccc(-c2nn3c(-c4ccco4)nnc3s2)cc1OC, which AC50 is on record?
The AC50 was 6.31 µM [rising, partial curve].

Which AC50 does the source give for Cc1nc2scc(-c3ccccc3)c2c(=O)o1 here?
The AC50 was 12.6 µM [falling, single point].

With COCCCNC(=O)CN(c1cccc(Cl)c1)S(C)(=O)=O as the compound, how does the AC50 read?
The AC50 was 0.631 µM [falling, full curve].

With Cc1ccccc1N1OC2C(=O)N(c3ccc(F)cc3)C(=O)C2C1c1ccccn1 (configuration not stated) as the compound, how does the AC50 read?
The AC50 was 31.6 µM [falling, single point].

With O=C(O)c1ccc(-n2nc(C(F)(F)F)c3c2-c2ccoc2CC3)cc1 as the compound, how does the AC50 read?
Its AC50 is 12.6 µM [rising, partial curve].

Which AC50 does the source give for COc1cc(-c2nnc(Cn3cc(C(F)(F)F)ccc3=O)o2)cc(OC)c1OC here?
Its AC50 is 12.6 µM [rising, partial curve].

With COC(=O)Nc1sc2c(c1C(=O)NCc1ccco1)CCC2 as the compound, how does the AC50 read?
The AC50 was 10 µM [rising, single point].

Which AC50 does the source give for COCCCNC(=O)CN(C1CCCCC1)S(=O)(=O)c1ccc(C)cc1 here?
The AC50 was 2.51 µM [rising, partial curve].

For Cn1c(=O)c2c(nc(NCc3ccco3)n2C/C=C/c2ccccc2)n(C)c1=O, which AC50 is on record?
Its AC50 is 12.6 µM [falling, partial curve].

Which AC50 does the source give for COc1cccc(C(=O)Oc2cc(N)n(S(=O)(=O)c3ccc(C)cc3)n2)c1OC here?
The AC50 was 12.6 µM [falling, single point].

Which AC50 does the source give for COc1ccc2c(Cl)c(-c3nnco3)sc2c1 here?
Its AC50 is 10 µM [rising, single point].

For O=C(O)c1cccnc1C(=O)O, which AC50 is on record?
Its AC50 is 31.6 µM [falling, single point].

With Cc1ccc(-c2csc3ncnc(-n4nc(C)cc4N)c23)cc1 as the compound, how does the AC50 read?
Its AC50 is 25.1 µM [rising, single point].

Which AC50 does the source give for N#Cc1cc2ccccc2nc1SCc1cccnc1 here?
Its AC50 is 10 µM [rising, partial curve].
